Values joined by “and” are separate entries in the source; they are usually repeats but may differ in a detail not shown here. Equal entries are not always repeated. Among all 320,000 compounds or so, about 22,000 (6.9%) were called active. Inconclusive results, whose numbers are uncertain, are shown with a selection of clear calls. Calls come from the whole dose curve; as a rule, active = well fitted inhibition curve with a large enough effect; inconclusive = small, poorly fitted or top-dose-only effect, or another doubt; inactive = no such curve, though single readings can be large or run the other way. A potency beside an inconclusive call is a rough fit, not a confirmed value.
test: Primary qHTS for delayed death inhibitors of the malarial parasite plastid, 96 hour incubation; conditions: P. falciparum luciferase reporter growth; series mostly up to 28.7 µM
Outline: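 Cell-based qHTS: luciferase-tagged P. falciparum in erythrocytes (2% hematocrit, 0.05% parasitemia final) incubated with compounds for 96 hours, 37 C, 5% CO2; luciferase detection reagent then added and luminescence measured.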
Potency is the fitted concentration of half-maximal effect.

Question: Which Potency does the source give for CCOc1cc(/C=N/Nc2nn3cnnc3c3ccccc23)ccc1O here?
Answer: inactive

Question: For COc1ccc(N(CC(=O)NCc2cccs2)S(=O)(=O)c2cccnc2)cc1, which Potency is on record?
Answer: inconclusive: 13.1 µM [inhibitor, partial curve, poor fit]

Question: Which Potency does the source give for O=C(C1CC1)N(Cc1ccco1)c1nc(-c2ccccc2)cs1 here?
Answer: inconclusive: 14.7 µM [inhibitor, partial curve]

Question: Which Potency does the source give for CC1CCCC(NC(=O)CSc2ncccn2)C1C (configuration not stated) here?
Answer: inactive

Question: Which Potency does the source give for Cc1ccc(OCc2nnc(SC3CCc4ccccc4C3=O)n2C)cc1 (configuration not stated) here?
Answer: active: 13.1 µM

Question: Which Potency does the source give for C=CCc1c(C)nc(C)nc1N/N=C/c1ccccc1O here?
Answer: inconclusive: 10.4 µM [inhibitor, single point]

Question: For Nc1nnc2c(n1)CCCC2, which Potency is on record?
Answer: inactive

Question: With O=C(NCCNC(=O)c1cc(Cl)ccc1Cl)c1ccco1 as the compound, how does the Potency read?
Answer: inactive

Question: With COc1ccc(S(=O)(=O)N/N=C(/C)c2ccco2)cc1 as the compound, how does the Potency read?
Answer: inconclusive: 10.4 µM [inhibitor, single point]

Question: With COc1cccc(N/C=C/C(=O)c2ccc(OC)c(OC)c2)c1 as the compound, how does the Potency read?
Answer: inconclusive: 11.7 µM [inhibitor, single point]

Question: With CN(CC1CCCN(CCc2cccc(C(F)(F)F)c2)C1)C(=O)c1cc2ccccc2o1 (configuration not stated) as the compound, how does the Potency read?
Answer: inactive

Question: With CCOc1ccc(N(C(C)=O)C2C=CS(=O)(=O)C2)cc1 (configuration not stated) as the compound, how does the Potency read?
Answer: inconclusive: 18.5 µM [inhibitor, single point]

Question: For CCN(CC)c1ccc(/C=N/Nc2cccc(C)c2)c(O)c1, which Potency is on record?
Answer: inconclusive: 18.5 µM [inhibitor, single point]

Question: For CC(C)C[C@@]12C(=O)N(c3cccc(F)c3)C(=O)N1[C@H](c1ccc(Cl)cc1)[C@@H]1C(=O)N(C3CCCCC3)C(=O)[C@@H]12, which Potency is on record?
Answer: active: 4.65 µM

Question: With Cc1cc(C)n(CC(=O)c2ccc(Cl)cc2)n1 as the compound, how does the Potency read?
Answer: inactive

Question: For COc1cc(/C=C(\C#N)c2nn(CCO)c(N)c2C#N)cc(OC)c1OC, which Potency is on record?
Answer: inactive

Question: For COc1ccc(CCNC(=O)Oc2ccccc2)cc1OC, which Potency is on record?
Answer: inconclusive: 0.329 µM [inhibitor, full curve]

Question: With CCCSc1ccc2nc(-c3ccccc3)cn2c1 as the compound, how does the Potency read?
Answer: inactive

Question: Which Potency does the source give for C/C(=C\C(=O)c1ccc(C)o1)Nc1ccc2c(c1)OCO2 here?
Answer: inactive

Question: For O=C(CCS(=O)(=O)c1cccs1)Nc1ccc(C(=O)NCc2ccc(F)cc2)cc1, which Potency is on record?
Answer: inconclusive: 5.86 µM [inhibitor, partial curve, poor fit]

Question: With COc1ccc(CCNC(=O)CN(c2ccc(OC)cc2)S(C)(=O)=O)cc1 as the compound, how does the Potency read?
Answer: inconclusive: 20.8 µM [inhibitor, partial curve, poor fit]

Question: With COc1cc(C(=O)N(C)CCOc2ccc(C)cc2)ccc1OC1CCN(C(C)=O)CC1 as the compound, how does the Potency read?
Answer: inactive

Question: Which Potency does the source give for CCN(CC)S(=O)(=O)c1cccc(-c2n[nH]c(=S)n2Cc2ccccc2)c1 here?
Answer: inconclusive: 5.22 µM [inhibitor, partial curve, poor fit]

Question: With CCc1ccccc1NC(=S)N=Nc1c(O)n(C)c2ccc(S(=O)(=O)N3CCOCC3)cc12 as the compound, how does the Potency read?
Answer: active: 1.85 µM

Question: For CC(C)CC(NC(N)=O)C(=O)NCCc1ccc(Cl)cc1Cl (configuration not stated), which Potency is on record?
Answer: inactive

Question: Which Potency does the source give for CCn1c(Cc2ccc(OC)cc2)nnc1SCC(=O)N1CCN(c2ccccc2)CC1 here?
Answer: inconclusive: 11.7 µM [inhibitor, partial curve, poor fit]

Question: With O=C(CCc1nnc(CCC2CCCCC2)o1)NCc1ccon1 as the compound, how does the Potency read?
Answer: inconclusive: 18.5 µM [inhibitor, single point]

Question: With COCc1[nH]c(=S)c(C#N)cc1C(=O)OC as the compound, how does the Potency read?
Answer: inconclusive: 18.5 µM [inhibitor, single point]

Question: With CSc1ccc(CCNC(=O)Cn2ncc3c([nH]c4ccccc43)c2=O)cc1 as the compound, how does the Potency read?
Answer: inactive

Question: With CCCCOc1ccc(NC(=S)Nc2cc(C)nc(SCCCC)n2)cc1 as the compound, how does the Potency read?
Answer: inconclusive: 1.65 µM [inhibitor, partial curve, poor fit]

Question: For Cc1ccc(NS(=O)(=O)c2ccc(C(=O)OCC(=O)Nc3cc(C)on3)cc2)cc1, which Potency is on record?
Answer: inconclusive: 18.5 µM [inhibitor, single point]

Question: For Cc1cccc(N2C(=O)C3CCCN3C2=S)c1C (configuration not stated), which Potency is on record?
Answer: inconclusive: 11.7 µM [inhibitor, single point]

Question: For CCOC(=O)c1cc2c(=O)n3ccccc3nc2n(CCOC)c1=NC(=O)c1c(-c2c(F)cccc2Cl)noc1C, which Potency is on record?
Answer: active: 5.86 µM

Question: Which Potency does the source give for COc1ccc(N(C(=O)c2snc(C(N)=O)c2N)C(C(=O)NC2CCCC2)c2cc(OC)ccc2OC)c(OC)c1 (configuration not stated) here?
Answer: inactive

Question: For C/C(=N\NC(=O)CNc1cccc(C)c1)c1ccc(Br)s1, which Potency is on record?
Answer: inconclusive: 10.4 µM [inhibitor, partial curve, poor fit]

Question: With CCOC(=O)C1(Cc2ccccc2C(F)(F)F)CCN(C2CCC2)CC1 as the compound, how does the Potency read?
Answer: inconclusive: 8.28 µM [inhibitor, partial curve, poor fit]

Question: For COc1ccc(/C=C/C(=O)N2CCN(c3ccccn3)CC2)cc1OC, which Potency is on record?
Answer: active: 11.7 µM

Question: With C/C(=N\NC(=O)c1ccc(Cl)cc1)c1ccc(Br)s1 as the compound, how does the Potency read?
Answer: active: 2.62 µM

Question: Which Potency does the source give for CC(C)(C)c1cc(C(=O)N/N=C/c2cc3c(cc2Br)OCO3)n[nH]1 here?
Answer: inconclusive: 10.4 µM [inhibitor, single point]

Question: Which Potency does the source give for CN(CC(=O)Nc1ccc(OC(F)(F)F)cc1)C(=O)Cc1ccc2c(c1)CCC2 here?
Answer: inconclusive: 5.86 µM [inhibitor, partial curve]

Question: Which Potency does the source give for CCOc1cc(C(=O)O/N=C(\N)c2ccc([N+](=O)[O-])cc2)cc(OCC)c1OCC here?
Answer: inconclusive: 20.8 µM [inhibitor, partial curve, poor fit]

Question: Which Potency does the source give for CCSc1nnc(-c2ccccc2N=Cc2c(C)[nH]n(-c3ccccc3)c2=O)c(=O)[nH]1 here?
Answer: inconclusive: 16.5 µM [inhibitor, single point]

Question: With Cc1cccc(-n2nc3c(c2NC(=O)c2ccc(Br)o2)CSC3)c1 as the compound, how does the Potency read?
Answer: inconclusive: 0.415 µM [inhibitor, full curve, poor fit]

Question: For CCNC(=O)CN(c1ccc(Br)c(C)c1)S(C)(=O)=O, which Potency is on record?
Answer: inconclusive: 0.465 µM [inhibitor, full curve, poor fit]

Question: Which Potency does the source give for Cc1ccccc1-n1nnnc1SCC(=O)N(C)C1CCS(=O)(=O)C1 (configuration not stated) here?
Answer: inactive

Question: With CC(C)C(=O)N(Cc1cc(=O)[nH]c2ccccc12)c1ccccc1 as the compound, how does the Potency read?
Answer: inconclusive: 8.28 µM [inhibitor, partial curve, poor fit]

Question: Which Potency does the source give for Cc1cccc(NC(=O)c2onc3c2CCCC3)c1C here?
Answer: inactive

Question: With CCCCn1c(N)c(N(CCOC)C(=O)COC(=O)CCOc2ccccc2C)c(=O)[nH]c1=O as the compound, how does the Potency read?
Answer: inactive

Question: With CC(=O)Nc1nc2ccccc2n1CCOc1ccccc1Cl as the compound, how does the Potency read?
Answer: inactive

Question: For CN(C)S(=O)(=O)c1ccc(NC(=O)c2ccc3ncsc3c2)cc1, which Potency is on record?
Answer: inconclusive: 13.1 µM [inhibitor, single point]

Question: Which Potency does the source give for CN(C)CCNC(=O)C(=O)Nc1ccc2c(c1)N(S(=O)(=O)c1cccs1)CCC2 here?
Answer: active: 13.1 µM

Question: Which Potency does the source give for COc1ccc(C2=NN(C(=O)CSc3nnnn3C)C(c3ccco3)C2)cc1 (configuration not stated) here?
Answer: inactive

Question: Which Potency does the source give for c1ccc(-c2noc(CSc3nnc(Cc4cccs4)n3-c3ccccc3)n2)cc1 here?
Answer: inactive

Question: Which Potency does the source give for CCOC(=O)c1c(C)[nH]c(NC(=O)Nc2ccc(NC(C)=O)cc2)c1C here?
Answer: inconclusive: 10.4 µM [inhibitor, single point]

Question: Which Potency does the source give for Cc1cccc(C(=O)N2CCN(Cc3nc4sc5c(c4c(=O)[nH]3)CCCC5)CC2)c1 here?
Answer: inconclusive: 4.15 µM [inhibitor, partial curve, poor fit]

Question: With CCOCCCNCc1cccc(OC)c1 as the compound, how does the Potency read?
Answer: inactive

Question: With O=C1/C(=C/c2cccnc2)SC(=S)N1Nc1ccccc1 as the compound, how does the Potency read?
Answer: inconclusive: 18.5 µM [inhibitor, single point]

Question: With Cc1ccc(C)c(Cn2nnc(C(=O)Nc3ccc4c(c3)OCCO4)c2N)c1 as the compound, how does the Potency read?
Answer: inactive

Question: Which Potency does the source give for COc1ccc(C(=O)NC2CCCc3c2cnn3-c2ccccc2F)cc1OC (configuration not stated) here?
Answer: inconclusive: 10.4 µM [inhibitor, partial curve]

Question: With C/C(=N/Nc1nc(-c2ccccc2)c(CC(=O)O)s1)c1ccccc1 as the compound, how does the Potency read?
Answer: inconclusive: 18.5 µM [inhibitor, single point]

Question: Which Potency does the source give for COc1ccc(N2CCN(C(=O)C3CCCN(S(=O)(=O)c4ccc5c(c4)oc(=O)n5C)C3)CC2)cc1 (configuration not stated) here?
Answer: inconclusive: 2.62 µM [inhibitor, full curve]

Question: For O=C(NCCC1CCCCN1S(=O)(=O)c1ccccc1)C(=O)NCc1ccc(F)cc1 (configuration not stated), which Potency is on record?
Answer: inconclusive: 18.5 µM [inhibitor, single point]

Question: For O=C(COc1ccc(Br)cc1Cl)NC1CCN(Cc2ccccc2)CC1, which Potency is on record?
Answer: active: 11.7 µM

Question: For O=C(CC1CCCCC1)Nc1ccccc1-c1ccccc1, which Potency is on record?
Answer: inconclusive: 18.5 µM [inhibitor, single point]

Question: With Fc1ccc(Nc2cccc3nccnc23)cc1 as the compound, how does the Potency read?
Answer: inactive

Question: With Cc1ccc(CNC(=O)C2CC(=O)N(c3ccc(OCC(=O)N4CCCC4)cc3)C2)cc1 (configuration not stated) as the compound, how does the Potency read?
Answer: inconclusive: 18.5 µM [inhibitor, single point]

Question: With O=C1CCC(C(=O)Nc2cccc(S(=O)(=O)N3CCOCC3)c2)N1 (configuration not stated) as the compound, how does the Potency read?
Answer: inconclusive: 0.0586 µM [inhibitor, partial curve, poor fit]

Question: For Cc1c(NC(=O)c2c(N)sc3c2CCCC3)c(=O)n(-c2ccccc2)n1C, which Potency is on record?
Answer: inactive

Question: Which Potency does the source give for COc1ccc(-c2nnc(SC(C)C(=O)NC3CC3)o2)cc1 (configuration not stated) here?
Answer: inconclusive: 7.38 µM [inhibitor, partial curve, poor fit]

Question: With COc1ccccc1N1CCN(S(=O)(=O)c2ccc(Cl)s2)CC1 as the compound, how does the Potency read?
Answer: inactive

Question: With CCCCc1cc2ccccc2c(OCCN(C)C)n1 as the compound, how does the Potency read?
Answer: inconclusive: 8.09 µM [inhibitor, single point] and inconclusive: 11.7 µM [inhibitor, single point]

Question: For O=C(NCC(c1ccco1)N1CCCCC1)c1cccc(S(=O)(=O)Nc2ccccc2Cl)c1 (configuration not stated), which Potency is on record?
Answer: inconclusive: 10.4 µM [inhibitor, single point]

Reference: PubChem BioAssay AID504834 (National Center for Advancing Translational Sciences (NCATS), 2011)
